Reference: PMC5059453
Numbering of substitutions follows the chain as printed. In names and notes the source's numbering stands. These are yes or no findings as the source states them, for the method shown. For some of these results: Binding seen in cells or lysates may run through a third protein. Some results given as binding are weak or reduced against the parent protein; the word gives no strength. For some of these results: Tags and fused reporters may be left off the sequences shown. Values belong to the binder of their own block, whether it stands above or below them.

Legend:
[1] = target: T1, F[1,2]::RPN9 (Rpn9 with the N-terminal DHFR fragment) (S. cerevisiae) (UniProt Q04062); assay: split reporter; protein-fragment complementation assay (PCA) with split methotrexate-resistant DHFR in yeast; fusions at native chromosomal loci; growth with 200 μg ml^−1 methotrexate
T1 sequence: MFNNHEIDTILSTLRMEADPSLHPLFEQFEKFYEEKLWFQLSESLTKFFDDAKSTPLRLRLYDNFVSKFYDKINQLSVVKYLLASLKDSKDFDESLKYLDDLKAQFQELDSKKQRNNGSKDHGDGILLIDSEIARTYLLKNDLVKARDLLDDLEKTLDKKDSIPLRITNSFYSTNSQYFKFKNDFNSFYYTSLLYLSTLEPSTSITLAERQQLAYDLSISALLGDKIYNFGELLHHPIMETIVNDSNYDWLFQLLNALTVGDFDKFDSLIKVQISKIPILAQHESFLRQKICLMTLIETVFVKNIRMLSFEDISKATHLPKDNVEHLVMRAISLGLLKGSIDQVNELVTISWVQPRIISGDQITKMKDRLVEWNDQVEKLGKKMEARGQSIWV

[2] = target: T2, His6-Rpn12 (S. cerevisiae), P32496; assay: pull-down; His6-tagged proteins immobilized on Ni2+ beads pull down purified Rpn10 or Ub-Rpn10 (42 μl of 2.8 mg ml^−1); 25 mM HEPES, 75 mM NaCl, 0.25% Triton X-100, 1 mM DTT, pH 7.4; 3 h at 4 °C; western blot with α-Rpn10; both purified; conditions: remark: other sources report otherwise
T2 chain: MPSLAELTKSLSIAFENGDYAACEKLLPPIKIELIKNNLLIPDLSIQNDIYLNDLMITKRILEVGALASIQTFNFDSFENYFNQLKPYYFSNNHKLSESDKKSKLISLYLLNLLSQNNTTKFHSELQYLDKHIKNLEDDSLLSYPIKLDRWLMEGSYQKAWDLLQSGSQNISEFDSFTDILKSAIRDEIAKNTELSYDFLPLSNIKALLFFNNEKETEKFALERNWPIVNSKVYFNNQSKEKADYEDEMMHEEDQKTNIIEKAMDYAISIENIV

[3] = target: T3, His6-Rpn9 (S. cerevisiae) (UniProt Q04062); assay: as above
T3 sequence: T1 sequence

binding [1]: binds weakly
B1: [F3]::RPN10 (Rpn10 with the C-terminal DHFR fragment) (protein, UniProt P38886 1-268)
chain: MVLEATVLVIDNSEYSRNGDFPRTRFEAQIDSVEFIFQAKRNSNPENTVGLISGAGANPRVLSTFTAEFGKILAGLHDTQIEGKLHMATALQIAQLTLKHRQNKVQHQRIVAFVCSPISDSRDELIRLAKTLKKNNVAVDIINFGEIEQNTELLDEFIAAVNNPQEETSHLLTVTPGPRLLYENIASSPIILEEGSSGMGAFGGSGGDSDANGTFMDFGVDPSMDPELAMALRLSMEEEQQRQERLRQQQQQQDQPEQSEQPEQHQDK

binding [2]: no binding (tested: 2.8 mg ml^−1)
B2: apo-Rpn10, P38886 1-268 (protein)
chain: B1 chain

binding [1]: binds
B3: [F3]::rpn10-K84R (Rpn10-K84R with the C-terminal DHFR fragment) (protein, UniProt P38886 1-268)
chain: B1 chain with K84R

binding [3]: binds weakly
B4: apo-Rpn10 (protein, UniProt P38886 1-268)
chain: B1 chain
